This is an account of results in doi:10.1101/2025.05.16.654433.

Amino acid sequences for entries named in this document (tags omitted).
UniProt P48727: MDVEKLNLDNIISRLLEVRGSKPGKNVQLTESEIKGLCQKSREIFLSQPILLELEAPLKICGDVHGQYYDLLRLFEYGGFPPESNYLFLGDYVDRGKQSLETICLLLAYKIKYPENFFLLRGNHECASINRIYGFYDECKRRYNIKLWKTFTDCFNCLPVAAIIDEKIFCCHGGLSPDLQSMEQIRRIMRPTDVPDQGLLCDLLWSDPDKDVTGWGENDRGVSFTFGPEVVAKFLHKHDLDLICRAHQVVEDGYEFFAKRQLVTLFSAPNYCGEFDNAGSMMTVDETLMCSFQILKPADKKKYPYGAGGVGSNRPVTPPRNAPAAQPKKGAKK

Positions count from the first letter of the chain named. Results are given in words; binding and its absence hold for the method and conditions named. In cells and extracts the contact can be indirect. Some results given as binding are weak or reduced against the parent protein; the word gives no strength. Where a sequence is shown, tags or fusion partners need not be part of it.

For assay [1], the target named is T1, APE-1 H591Y ::GFP::3xflag (C. elegans) (UniProt Q9XVN3).
T1 sequence: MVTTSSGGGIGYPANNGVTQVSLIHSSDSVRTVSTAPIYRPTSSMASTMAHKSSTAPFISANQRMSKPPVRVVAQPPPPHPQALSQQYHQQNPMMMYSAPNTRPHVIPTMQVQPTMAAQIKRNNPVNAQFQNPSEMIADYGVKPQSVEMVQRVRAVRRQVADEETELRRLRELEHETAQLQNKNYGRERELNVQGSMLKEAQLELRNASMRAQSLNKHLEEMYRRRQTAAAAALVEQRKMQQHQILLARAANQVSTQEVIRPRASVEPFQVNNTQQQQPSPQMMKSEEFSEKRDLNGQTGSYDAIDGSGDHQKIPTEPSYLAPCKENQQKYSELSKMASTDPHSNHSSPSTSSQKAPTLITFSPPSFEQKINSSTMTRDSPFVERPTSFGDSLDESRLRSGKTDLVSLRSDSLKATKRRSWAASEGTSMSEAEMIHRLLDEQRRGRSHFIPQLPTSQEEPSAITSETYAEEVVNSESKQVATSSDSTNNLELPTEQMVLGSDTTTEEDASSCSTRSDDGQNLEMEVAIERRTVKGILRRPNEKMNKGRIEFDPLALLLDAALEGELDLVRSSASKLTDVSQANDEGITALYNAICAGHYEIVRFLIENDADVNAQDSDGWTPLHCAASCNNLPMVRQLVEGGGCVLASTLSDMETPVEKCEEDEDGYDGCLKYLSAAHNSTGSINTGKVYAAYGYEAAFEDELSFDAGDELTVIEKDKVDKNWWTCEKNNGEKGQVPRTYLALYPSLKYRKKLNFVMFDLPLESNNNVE
As to the kind of experiment: single-molecule pull-down with TIRF microscopy and photobleaching step counting; APE-1::GFP::3xflag captured from whole-worm lysate on coverslips functionalized with biotinylated anti-flag antibody; colocalized green and far-red (JF646 HaloTag::GSP-2) spots; photobleaching steps classified by CNNs; 50 mM HEPES pH 7.6, 150 mM KCl, 10% glycerol, room temperature.

In assay [2] the target is T2, APE-1 N583K ::GFP::3xflag (C. elegans) (UniProt Q9XVN3).
T2 sequence: T1 sequence with N583K, Y591H
Described as above.

For “HaloTag::GSP-2 (endogenously HaloTagged GSP-2 labeled with JF646) (from UniProt P48727 1-333) (enzyme)”, the binding entry in assay [1] and in assay [2] was “binds” throughout.
